PubChem BioAssay AID1259331 | Drosophila RNAi Screening Center, 2017
Here is an unselected part of about 3,100 deposited reagents. 126 of all reagents (4.1%) count as active. 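Calls are per reagent; zinc was so toxic that few knock-downs lowered ATP further, so most hits raise ATP.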 Raw values vary from plate to plate and are shown uncorrected. Names joined by + are all predicted targets of the reagent. The record does not give: the amount of reagent.

Aim: 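Knock-downs that alter ATP level after a high zinc chloride dose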 (primary screen)
Cells: Drosophila S2R+ cells
Reagents: long dsRNA against Drosophila genes
Timing: 5 days (4 days knock-down, then 1 day zinc)
Challenge: zinc chloride at 15 mM final level for 1 day
Detection: 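Total cellular ATP measured by luciferase luminescence as a viability proxy, turned into Z scores from three plate copies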
Direction: mean Z score: higher = more ATP than other wells, better survival under zinc; ATP luminescence: higher = more ATP, more viable cells
Rule for the call: 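Hit when the absolute Z score is greater than 1.5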
Meaning of the calls: active = hit, ATP up or down; inactive = not a hit

| Target gene | DRSC id | mean Z score | ATP luminescence, replicate 1 | ATP luminescence, replicate 2 | activity call |
| --- | --- | --- | --- | --- | --- |
| chk (chaski) | DRSC04994 | -0.321 | 27833 | 31073 | inactive |
| Baldspot | DRSC09671 | -0.569 | 63925 | 50686 | inactive |
| Scgdelta (Sarcoglycan delta) | DRSC18544 | -0.274 | 59569 | 63496 | inactive |
| NPFR (Neuropeptide F receptor) | DRSC12173 | -0.462 | 50921 | 63153 | inactive |
| tkv (thickveins) | DRSC03623 | -0.277 | 48791 | 56053 | inactive |
| tkv (thickveins) | DRSC22606 | 0.349 | 51372 | 55350 | inactive |
| tkv (thickveins) | DRSC25957 | -0.103 | 54663 | 52116 | inactive |
| CG11737 | DRSC14364 | -0.146 | 37240 | 58300 | inactive |
| Cad88C (Cadherin 88C) | DRSC15486 | -0.256 | 39837 | 56825 | inactive |
| Cad88C (Cadherin 88C) | DRSC26126 | 0.0878 | 55813 | 60203 | inactive |
| CG8051 | DRSC20077 | -0.503 | 36130 | 40090 | inactive |
| CG8051 | DRSC26855 | -0.365 | 64696 | 56568 | inactive |
| MME1 (Mitochondrial Magnesium Exporter 1) | DRSC02714 | 0.0111 | 54013 | 58889 | inactive |
| MME1 (Mitochondrial Magnesium Exporter 1) | DRSC39544 | 0.162 | 47617 | 58626 | inactive |
| Osi10b (Osiris 10b) | DRSC12279 | -0.0308 | 77834 | 60152 | inactive |
| Osi10b (Osiris 10b) | DRSC39619 | 0.0785 | 66649 | 57271 | inactive |
| pain (painless) | DRSC04273 | -0.00879 | 51371 | 39647 | inactive |
| pain (painless) | DRSC28351 | 0.792 | 72654 | 74575 | inactive |
| Ktl (Kctd12-like) | DRSC14270 | -0.149 | 44427 | 46211 | inactive |
| Mgtor (Megator) | DRSC05958 | 0.0824 | 30435 | 33490 | inactive |
| Mgtor (Megator) | DRSC39824 | 0.308 | 55321 | 66137 | inactive |
| Tom20 (Translocase of outer membrane 20) | DRSC10899 | -0.358 | 27457 | 29753 | inactive |
| CG7970 | DRSC08605 | 0.00124 | 28011 | 30542 | inactive |
| CG7970 | DRSC26090 | 0.231 | 62844 | 59963 | inactive |
| beta4GalT7 (beta-4-galactosyltransferase 7) | DRSC14385 | -0.423 | 41188 | 56019 | inactive |
| Sarm (Sterile alpha and Armadillo motif) | DRSC08906 | 0.165 | 45525 | 42919 | inactive |
| Sarm (Sterile alpha and Armadillo motif) | DRSC08907 | -0.919 | 29187 | 32324 | inactive |
| Sarm (Sterile alpha and Armadillo motif) | DRSC10038 | -0.467 | 67372 | 52761 | inactive |
| Sarm (Sterile alpha and Armadillo motif) | DRSC10927 | -0.00433 | 72774 | 65385 | inactive |
| Sarm (Sterile alpha and Armadillo motif) | DRSC10929 | -0.358 | 28433 | 29719 | inactive |
| Or22c (Odorant receptor 22c) | DRSC00766 | -0.0961 | 43691 | 44994 | inactive |
| Or22c (Odorant receptor 22c) | DRSC26292 | -0.0463 | 63667 | 53502 | inactive |
| CG3339 | DRSC13821 | -0.158 | 75021 | 59175 | inactive |
| CG3339 | DRSC15479 | 0.453 | 71985 | 75155 | inactive |
| VAChT (Vesicular acetylcholine transporter) | DRSC13311 | 1.3 | 60152 | 50909 | inactive |
| VAChT (Vesicular acetylcholine transporter) | DRSC23986 | 0.00316 | 72071 | 43828 | inactive |
| Arts + Apl | DRSC10349 | -0.0454 | 79343 | 53346 | inactive |
| Vha16-5 (Vacuolar H[+] ATPase 16kD subunit 5) | DRSC02986 | -0.546 | 38959 | 47840 | inactive |
| CG34030 | DRSC08866 | -0.0766 | 38833 | 42349 | inactive |

Next part; the last 4 above are carried over.
| Target gene | DRSC id | mean Z score | ATP luminescence, replicate 1 | ATP luminescence, replicate 2 | activity call |
| --- | --- | --- | --- | --- | --- |
| VAChT (Vesicular acetylcholine transporter) | DRSC23986 | 0.00316 | 72071 | 43828 | inactive |
| Arts + Apl | DRSC10349 | -0.0454 | 79343 | 53346 | inactive |
| Vha16-5 (Vacuolar H[+] ATPase 16kD subunit 5) | DRSC02986 | -0.546 | 38959 | 47840 | inactive |
| CG34030 | DRSC08866 | -0.0766 | 38833 | 42349 | inactive |
| spict (spichthyin) | DRSC02157 | -0.521 | 47440 | 50367 | inactive |
| spict (spichthyin) | DRSC39463 | 0.0749 | 56585 | 53190 | inactive |
| Ephrin | DRSC17165 | -0.421 | 64851 | 53173 | inactive |
| Ephrin | DRSC39417 | -0.637 | 47754 | 32703 | inactive |
| Ephrin | DRSC39418 | -0.0538 | 39820 | 58608 | inactive |
| iav (inactive) | DRSC25119 | -0.143 | 61507 | 56828 | inactive |
| iav (inactive) | DRSC39553 | -0.504 | 58248 | 46125 | inactive |
| Tim23 (Translocase of inner mitochondrial membrane 23) | DRSC21240 | 3.39 | 63959 | 1.04e5 | active |
| btl (breathless) | DRSC11331 | -0.369 | 68676 | 53797 | inactive |
| btl (breathless) | DRSC36653 | 0.777 | 46057 | 78534 | inactive |
| btl (breathless) | DRSC36654 | -0.108 | 50172 | 42435 | inactive |
| CG9747 | DRSC23910 | -0.194 | 53293 | 53814 | inactive |
| CG9747 | DRSC39676 | -0.122 | 59339 | 58612 | inactive |
| ine (inebriated) | DRSC00822 | -0.166 | 51304 | 56602 | inactive |
| ine (inebriated) | DRSC28874 | -0.187 | 55719 | 61352 | inactive |
| Atg9 (Autophagy-related 9) | DRSC38118 | -0.125 | 44582 | 46678 | inactive |
| Atg9 (Autophagy-related 9) | DRSC38119 | -0.0176 | 48303 | 45628 | inactive |
| Mrp5 (Multidrug resistance protein 5) | DRSC15597 | -0.906 | 29222 | 46657 | inactive |
| Mrp5 (Multidrug resistance protein 5) | DRSC15598 | -0.237 | 44445 | 39970 | inactive |
| Mrp5 (Multidrug resistance protein 5) | DRSC25669 | -0.569 | 50138 | 55145 | inactive |
| Glut1 (Glucose transporter 1) | DRSC07927 | -0.574 | 33387 | 34261 | inactive |
| Glut1 (Glucose transporter 1) | DRSC08662 | -0.607 | 27559 | 27405 | inactive |
| eag (ether a go-go) | DRSC19067 | -0.329 | 1.17e5 | 67080 | inactive |
| eag (ether a go-go) | DRSC20328 | 0.626 | 71694 | 81264 | inactive |
| eag (ether a go-go) | DRSC28295 | 2.62 | 1.18e5 | 90305 | active |
| COX7A (Cytochrome c oxidase subunit 7A) | DRSC16514 | 1.01 | 33593 | 68041 | inactive |
| eca (eclair) | DRSC22290 | -0.223 | 47806 | 45525 | inactive |
| Lgr4 (Leucine-rich repeat-containing G protein-coupled receptor 4) | DRSC18970 | -0.151 | 68761 | 63531 | inactive |
| Lgr4 (Leucine-rich repeat-containing G protein-coupled receptor 4) | DRSC19884 | 0.025 | 66926 | 65991 | inactive |
| Lgr4 (Leucine-rich repeat-containing G protein-coupled receptor 4) | DRSC24434 | 0.325 | 65489 | 59500 | inactive |
